These are yes or no findings as the source states them, for the method shown. In cells and extracts the contact can be indirect. Some entries that bind do so weakly or less than the wild type.
Target: Dctn1 (dynactin subunit 1), endogenous mouse protein (mouse (endogenous in E16.5 brain)) (UniProt O08788)
Assay: co-IP; endogenous proteins in E16.5 mouse whole brain lysate; immunoprecipitated with goat anti-DCTN1 (control IgG beside it), 4 °C 17 h, Protein G magnetic beads; 50 mM Tris-HCl pH 7.4, 150 mM NaCl, 1 mM EDTA, 0.5% NP-40, 0.5% sodium deoxycholate; blot with anti-TDP-43

Protein sequences, listed by entry. Tags and fused reporters are not part of them.
UniProt O08788: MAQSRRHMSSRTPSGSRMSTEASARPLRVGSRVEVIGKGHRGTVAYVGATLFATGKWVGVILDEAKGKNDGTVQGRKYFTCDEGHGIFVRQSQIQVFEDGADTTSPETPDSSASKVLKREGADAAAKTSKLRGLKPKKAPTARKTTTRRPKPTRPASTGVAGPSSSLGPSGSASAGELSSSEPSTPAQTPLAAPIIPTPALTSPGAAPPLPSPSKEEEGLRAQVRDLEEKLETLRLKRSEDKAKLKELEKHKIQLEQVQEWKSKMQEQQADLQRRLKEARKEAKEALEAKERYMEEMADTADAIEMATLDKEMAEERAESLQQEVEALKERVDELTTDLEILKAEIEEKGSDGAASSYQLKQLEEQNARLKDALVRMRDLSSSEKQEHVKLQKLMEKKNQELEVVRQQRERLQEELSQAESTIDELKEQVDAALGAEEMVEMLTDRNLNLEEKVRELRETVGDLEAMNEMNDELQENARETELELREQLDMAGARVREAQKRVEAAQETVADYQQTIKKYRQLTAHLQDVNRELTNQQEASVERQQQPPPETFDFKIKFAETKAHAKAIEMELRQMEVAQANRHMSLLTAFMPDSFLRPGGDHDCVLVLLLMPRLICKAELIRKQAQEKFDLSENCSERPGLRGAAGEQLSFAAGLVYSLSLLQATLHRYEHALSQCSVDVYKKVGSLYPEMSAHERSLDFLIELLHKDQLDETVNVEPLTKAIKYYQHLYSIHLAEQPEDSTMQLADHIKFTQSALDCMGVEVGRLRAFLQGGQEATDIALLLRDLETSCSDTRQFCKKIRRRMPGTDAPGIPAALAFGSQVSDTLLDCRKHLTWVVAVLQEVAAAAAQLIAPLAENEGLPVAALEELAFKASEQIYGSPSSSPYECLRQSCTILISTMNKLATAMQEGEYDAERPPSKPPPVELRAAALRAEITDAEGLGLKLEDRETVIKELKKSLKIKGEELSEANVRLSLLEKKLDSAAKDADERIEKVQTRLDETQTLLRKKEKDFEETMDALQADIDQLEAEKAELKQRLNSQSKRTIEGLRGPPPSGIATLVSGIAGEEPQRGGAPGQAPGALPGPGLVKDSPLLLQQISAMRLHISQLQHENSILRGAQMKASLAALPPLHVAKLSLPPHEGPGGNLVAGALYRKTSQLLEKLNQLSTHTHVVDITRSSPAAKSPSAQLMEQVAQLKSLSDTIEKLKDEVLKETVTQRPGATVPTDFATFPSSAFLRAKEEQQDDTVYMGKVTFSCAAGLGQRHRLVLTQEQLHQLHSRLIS
UniProt Q921F2: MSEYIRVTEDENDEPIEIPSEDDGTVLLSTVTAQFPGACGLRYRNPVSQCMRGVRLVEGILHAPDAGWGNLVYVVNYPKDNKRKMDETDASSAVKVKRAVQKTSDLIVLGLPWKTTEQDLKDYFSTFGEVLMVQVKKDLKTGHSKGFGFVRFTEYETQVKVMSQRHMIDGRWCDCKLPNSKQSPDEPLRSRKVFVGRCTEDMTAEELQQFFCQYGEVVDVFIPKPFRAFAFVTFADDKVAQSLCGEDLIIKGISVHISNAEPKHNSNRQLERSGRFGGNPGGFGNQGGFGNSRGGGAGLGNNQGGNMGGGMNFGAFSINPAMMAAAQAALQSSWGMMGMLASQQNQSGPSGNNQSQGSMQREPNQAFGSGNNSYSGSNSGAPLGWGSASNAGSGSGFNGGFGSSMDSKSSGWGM

Tdp-43, endogenous mouse protein (from UniProt Q921F2 1-414)
binding: binds

Reference: article PMC8070438
